Test results: BigSolDB 2.1

SMILES: CCCCc1oc2ccccc2c1C(=O)c1cc(I)c(OCCN(CC)CC)c(I)c1.Cl
- solubility (mole fraction) (in NMP, 293.2 K): 0.00923
- solubility (mole fraction) (in NMP, 298.2 K): 0.012
- solubility (mole fraction) (in NMP, 303.2 K): 0.0137
- solubility (mole fraction) (in NMP, 308.2 K): 0.0173
- solubility (mole fraction) (in NMP, 313.2 K): 0.0199
- solubility (mole fraction) (in ethanol, 293.2 K): 0.0012
- solubility (mole fraction) (in ethanol, 298.2 K): 0.00158
- solubility (mole fraction) (in ethanol, 303.2 K): 0.00235
- solubility (mole fraction) (in ethanol, 308.2 K): 0.00468
- solubility (mole fraction) (in ethanol, 313.2 K): 0.00673
- solubility (mole fraction) (in water, 293.2 K): 4.59e-06
- solubility (mole fraction) (in water, 298.2 K): 6.45e-06
- solubility (mole fraction) (in water, 303.2 K): 8.38e-06
- solubility (mole fraction) (in water, 308.2 K): 9.58e-06
- solubility (mole fraction) (in water, 313.2 K): 1.22e-05
